{"source": "PubChem BioAssay AID1508597, Cure First – 2020", "purpose": "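Survival screen with siRNA in ovarian cancer cells derived from patients, with or without rucaparib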 (primary screen)", "system": "human ovarian carcinoma lines grown from tumours: OCI-P5x (papillary serous) and OCI-C5x (clear cell)", "reagents": "siRNA pool against human genes, 1.25 pmol siRNA per well", "timing": "72 h or 96 h, depending on the cell culture", "conditions": "rucaparib 20 µM (about IC30) or vehicle, present until read-out", "rucaparib or vehicle": "Rucaparib", "cell line": "OCI-P5x (serous)", "read-out": "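ATP luminescence measured at 72 or 96 h according to the culture, then normalised and expressed as percent viability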", "scale": "viability, normalised: higher = more viable cells remaining", "call rule": "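a well counts as a hit if its normalised viability is under 80 percent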", "meaning of the calls": "active = viability under 80%; inactive = viability 80% or more", "note": "This is an unselected part of the about 2,100 reagents, under one of the conditions tested. 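Calls flag viability under 80% in either arm, not effects specific to rucaparib; the reference for percent is not stated.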 A number with no mark means an inactive call. Not given: the 100% reference."}
{"gene":"GADD45G","technical replicate":"1","viability, normalised (%)":"79.9 (active)"}
{"gene":"GADD45G","technical replicate":"2","viability, normalised (%)":86.2}
{"gene":"GADD45G","technical replicate":"3","viability, normalised (%)":"74.3 (active)"}
{"gene":"NCOA5","technical replicate":"1","viability, normalised (%)":"52.8 (active)"}
{"gene":"NCOA5","technical replicate":"2","viability, normalised (%)":"34.9 (active)"}
{"gene":"NCOA5","technical replicate":"3","viability, normalised (%)":"63.8 (active)"}
{"gene":"KMT2E","technical replicate":"1","viability, normalised (%)":"66.3 (active)"}
{"gene":"KMT2E","technical replicate":"2","viability, normalised (%)":"54.1 (active)"}
{"gene":"KMT2E","technical replicate":"3","viability, normalised (%)":"70.8 (active)"}
{"gene":"POLD3","technical replicate":"1","viability, normalised (%)":"74.4 (active)"}
{"gene":"POLD3","technical replicate":"2","viability, normalised (%)":"77.8 (active)"}
{"gene":"POLD3","technical replicate":"3","viability, normalised (%)":"63.7 (active)"}

2 entries from above, ordered by “viability, normalised (%)”, highest first:
{"gene":"KMT2E","technical replicate":"1","viability, normalised (%)":"66.3 (active)"}
{"gene":"KMT2E","technical replicate":"2","viability, normalised (%)":"54.1 (active)"}
